Patent publication US5270304A, “Therapeutic 2-alkynyl adenosine agent for ischemic diseases of the heart or brain” (priority 1988, dated 1993)
At least one structure is not confirmed: it was looked up by name or label, or the drawing left a doubt.

System: ICR mice
Assay: Brain protecting effect: normobaric hypoxia method
Format: in vivo
Experimental: When the brain falls into hypoxia by cerebral circulatory disorder, its function will be rapidly and irreversibly lost. Accordingly, the pharmacological activities of the drugs were evaluated with the extension time relative to the survival time of the test animals under hypoxia or anoxia induced by changing gas phase components or by a drug.
Evaluation of the pharmacological activity by the normobaric hypoxia method was conducted by following the method of Yasuda et al. (Arch. Int. Pharmacodyn, 233, 136-144 (1978)) as described below.
Animals used were 8 to 11 male ICR mice of 7 weeks age (Clea Japan) per group.
The mice were placed in a desiccator made of glass, and hypoxia was induced by passing a gas mixture of 96% N2 and 4% O2 at a flow rate of 5 liters/min. The time after the passing of the gas into the desiccator to the respiration arrest of each mouse was measured and defined as the survival time.
The test drug was administered intraperitoneally 30 minutes before the initiation of gas passing. The average survival times for the control group and the group to which the test drug was administered were calculated.
The test drug was suspended in a physiological saline containing 0.5% CMC (carboxymethyl cellulose), and the dosage was 0.1 ml per 10 g of body weight. To the mice of the control group was administered 0.5% of the CMC physiological saline in the same manner. The statistical analysis was conducted according to the student's t-test.

Row | SMILES | extension of survival time (normobaric hypoxia) (1 mg/kg i.p.) | extension of survival time (normobaric hypoxia) (3 mg/kg i.p.)
1 | CCCCCCC#Cc1nc(N)c2ncn([C@@H]3O[C@H](CO)[C@@H](O)[C@H]3O)c2n1 [Compound 4, 2-octynyladenosine] | Significant extension of survival time | Significant extension of survival time
2 | CCCCC#Cc1nc(N)c2ncn([C@@H]3O[C@H](CO)[C@@H](O)[C@H]3O)c2n1 [Compound 2, 2-hexynyladenosine] | Significant extension of survival time | –
